Measurements taken from article PMC7957176.
Results are given in words; binding and its absence hold for the method and conditions named. For part of these data: Binding seen in cells or lysates may run through a third protein. Some binding calls cover weakened binding; strength is not graded here. For part of these data: Where a sequence is shown, tags or fusion partners need not be part of it.

Amino acid sequences for entries named in this document (tags omitted).
UniProt Q93009: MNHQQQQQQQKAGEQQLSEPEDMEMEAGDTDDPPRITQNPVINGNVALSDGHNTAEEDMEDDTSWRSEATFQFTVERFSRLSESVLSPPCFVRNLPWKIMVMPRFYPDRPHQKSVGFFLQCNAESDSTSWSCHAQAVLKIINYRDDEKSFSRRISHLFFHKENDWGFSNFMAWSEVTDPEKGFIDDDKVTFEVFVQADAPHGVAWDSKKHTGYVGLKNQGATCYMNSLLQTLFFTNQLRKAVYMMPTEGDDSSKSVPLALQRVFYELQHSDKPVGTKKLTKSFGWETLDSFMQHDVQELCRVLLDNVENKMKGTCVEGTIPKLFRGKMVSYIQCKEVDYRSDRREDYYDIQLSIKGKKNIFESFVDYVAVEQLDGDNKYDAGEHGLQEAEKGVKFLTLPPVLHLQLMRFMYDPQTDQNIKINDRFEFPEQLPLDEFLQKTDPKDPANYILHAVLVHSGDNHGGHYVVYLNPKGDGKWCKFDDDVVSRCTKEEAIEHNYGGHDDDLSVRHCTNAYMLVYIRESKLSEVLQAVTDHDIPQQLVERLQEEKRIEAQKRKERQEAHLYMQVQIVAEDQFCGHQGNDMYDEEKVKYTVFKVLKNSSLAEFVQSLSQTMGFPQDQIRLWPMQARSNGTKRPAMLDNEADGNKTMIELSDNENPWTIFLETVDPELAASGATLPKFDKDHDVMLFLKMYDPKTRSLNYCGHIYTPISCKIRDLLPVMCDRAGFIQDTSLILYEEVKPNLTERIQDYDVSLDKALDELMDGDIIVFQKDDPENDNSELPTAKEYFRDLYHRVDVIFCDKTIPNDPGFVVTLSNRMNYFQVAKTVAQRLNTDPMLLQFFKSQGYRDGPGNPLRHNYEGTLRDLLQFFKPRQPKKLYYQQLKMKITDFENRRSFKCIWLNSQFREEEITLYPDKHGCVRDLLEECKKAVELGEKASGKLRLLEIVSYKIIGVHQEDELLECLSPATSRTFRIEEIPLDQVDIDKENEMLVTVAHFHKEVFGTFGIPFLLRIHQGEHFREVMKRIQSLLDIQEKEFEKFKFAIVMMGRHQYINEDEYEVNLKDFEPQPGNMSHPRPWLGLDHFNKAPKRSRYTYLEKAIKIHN

What was measured:
Flag-ARMC5 (human) = biological target: T1, Flag-ARMC5 (human) (UniProt Q96C12); assay: co-IP; cell lysates in RIPA buffer incubated with primary antibody pre-absorbed protein G sepharose beads at 4°C overnight, washed with RIPA buffer, Western blot
T1 sequence: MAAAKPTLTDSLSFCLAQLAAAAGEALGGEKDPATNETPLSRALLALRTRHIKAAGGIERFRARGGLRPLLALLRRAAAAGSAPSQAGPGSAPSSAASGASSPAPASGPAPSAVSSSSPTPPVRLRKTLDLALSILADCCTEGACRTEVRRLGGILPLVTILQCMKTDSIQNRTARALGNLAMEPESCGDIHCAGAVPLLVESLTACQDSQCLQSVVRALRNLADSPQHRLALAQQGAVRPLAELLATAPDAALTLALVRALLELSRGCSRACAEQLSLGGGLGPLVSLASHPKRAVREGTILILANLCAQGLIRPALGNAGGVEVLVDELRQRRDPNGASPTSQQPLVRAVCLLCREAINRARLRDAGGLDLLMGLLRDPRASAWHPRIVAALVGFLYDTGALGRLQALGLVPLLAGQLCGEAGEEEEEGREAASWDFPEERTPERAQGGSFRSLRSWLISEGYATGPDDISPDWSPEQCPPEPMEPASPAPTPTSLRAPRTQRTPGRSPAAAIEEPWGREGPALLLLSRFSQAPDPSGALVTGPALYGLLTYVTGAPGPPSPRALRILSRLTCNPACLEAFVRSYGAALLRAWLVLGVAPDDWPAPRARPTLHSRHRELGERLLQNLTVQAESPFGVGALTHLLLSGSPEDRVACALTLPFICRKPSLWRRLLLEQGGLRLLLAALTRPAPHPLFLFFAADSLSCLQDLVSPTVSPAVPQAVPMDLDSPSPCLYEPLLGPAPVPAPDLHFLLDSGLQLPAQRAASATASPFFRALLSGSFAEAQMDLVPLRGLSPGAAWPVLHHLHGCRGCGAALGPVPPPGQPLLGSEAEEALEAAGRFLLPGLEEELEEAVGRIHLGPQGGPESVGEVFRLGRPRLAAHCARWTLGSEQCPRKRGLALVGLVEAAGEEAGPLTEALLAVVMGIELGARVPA

[1] = biological target: T2, endogenous ARMC5 (human (endogenous in 786-O)) (UniProt Q96C12); assay: as above
T2 sequence: T1 sequence

[2] = biological target: Myc-USP7 (full-length) (human) (UniProt Q93009); assay: as above
[3] = biological target: endogenous USP7 (ubiquitin-specific processing protease 7) (human (endogenous in 786-O)) (UniProt Q93009); assay: as above
GST-USP7 (human) = GST-USP7 (human) (UniProt Q93009); assay: pull-down; GST or GST-USP7 retained on glutathione Sepharose beads, incubated 2 hours at 25°C with His-ARMC5, eluted at 100°C, Western blot; both purified

“endogenous USP7 (ubiquitin-specific processing protease 7) (from UniProt Q93009 1-1102) (enzyme)” was tested, and the binding (Flag-ARMC5 (human)) was “binds” and the binding [1] was “binds”.

B1: endogenous ARMC5 (protein, UniProt Q96C12 1-935)
chain: T1 sequence
B1 was tested, and the binding [2] was “binds” and the binding [3] was “binds”.

B2: Flag-ARMC5 (protein, UniProt Q96C12 1-935)
chain: T1 sequence
In the case of B2, the binding [2] is reported as “binds”.

B3: His-ARMC5 (protein, UniProt Q96C12 1-935)
chain: T1 sequence
With B3 the binding (GST-USP7 (human)) was “binds”.
